# Library screen at single concentrations

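Assay of Toxoplasma gondii numbers, read through their beta-galactosidase reporter with a colour substrate. Tested at 50 µM. The record gives no direction; the compounds picked for IC50 retests had high values, so higher reads as fewer parasites. Size under these conditions: about 18,000 compounds, about 170 of them at 50% or above in at least one test.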

Results are given as percent effect.
How 0% and 100% were set is not recorded. Most values in the screen are low, and negative values occur.
This is an unselected part of the compounds tested.

| Compound | Percent Effect |
|---|---|
| `Cn1cc(Br)cc1C(=O)NCCCNc1ncccn1` | -2.644 |
| `NCc1ccc(C(=O)NCC(N)=O)cc1` | -2.202 |
| `CS(=O)(=O)n1cc(N)cn1` | -2.195 |
| `NC(=O)C1CCC(NC(=O)c2cc(F)cc(F)c2)CC1` (configuration not stated) | -36.7 |
| `Cc1cc(Br)oc1C(=O)NCCOC(N)=O` | -2.351 |
| `CCn1cc(NC(=O)NC(C)C)cn1` | 17.68 |
| `CN1C(=O)C[C@H](CN)[C@H]1c1cccnc1` | 13.49 |
| `Cc1cc(=O)[nH]c(C(C)(C)N)n1` | 5.544 |
| `NCc1ccncc1OCC(F)F` | 11.62 |
| `NCC1CCN(C(=O)CCc2ccc(F)cc2)CC1` | 15.03 |
| `CCN1CCCN(c2ccccn2)CC1` | 3.404 |
| `Cc1ccc2[nH]c(C(=O)N3CCN(C)CC3)cc2c1` | -14.74 |
| `NC(=O)C1CCCN(Cc2ccc(F)c(Br)c2)C1` (configuration not stated) | -4.731 |
| `CNCC(=O)Nc1cc(Cl)c(OCCOC)c(Cl)c1` | -0.6689 |
| `CCOCCn1ccnc1S(C)(=O)=O` | -5.637 |
| `OCc1ccc(CSc2nnc(O)[nH]2)cc1` | -7.569 |
| `CC(=O)NCCC1CCCCN1Cc1noc(C)n1` (configuration not stated) | -10.92 |
| `COc1ccc(CCCN2CCNC(=O)CC2)cc1F` | -21.93 |
| `Cc1c(C(=O)NCCCn2cncn2)cnn1C` | 2.697 |
| `CCS(=O)(=O)CCC(=O)Nc1cccc(F)c1` | 5.162 |
| `Cc1cc(CC(=O)NCCNc2cccnc2)on1` | -2.511 |
| `CCc1cc(=O)[nH]c(C(C)(C)N)n1` | -9.508 |
| `c1cc(N2CCN(CCn3cncn3)CC2)ncn1` | -12.85 |
| `CNCCOc1cccc(C)c1` | -2.362 |
| `c1ccc2c(N3CCNCC3)cncc2c1` | 7.606 |
| `COc1cccc(NCCC#N)c1` | -0.6271 |
| `CC(N)CCNS(=O)(=O)c1ccccc1` (configuration not stated) | -13.24 |
| `CN(C)C(=O)c1cccc(CN)c1` | -1.185 |
| `Cc1ncn(CC(O)c2cccc(F)c2)c(=O)c1C` (configuration not stated) | 8.057 |
| `CC(C)NC(=O)COC(=O)C1=NN(C)C(=O)CC1` | -5.671 |
| `O=C(COc1ccccc1F)NCCc1cccnc1` | -10.53 |
| `CC(C)C(C)(N)CNC(=O)OC(C)(C)C` (configuration not stated) | -13.2 |
| `CSc1c(F)cc(NC(=O)NCCO)cc1F` | -17.9 |
| `N#CC1COCCN1C(=O)c1cc(Cl)c2c(c1)OCO2` (configuration not stated) | 8.251 |
| `N#CCc1cc(Cl)ccn1` | -19.44 |
| `CC(NC(=O)OC(C)(C)C)C1CCNCC1` (configuration not stated) | 34.56 |
| `NC1CCN(c2ncnc3c2CCC3)CC1` | -0.3929 |
| `O=C(N[C@H]1CCCNC1)c1cccc(F)c1Cl` | -0.9562 |
| `O=C(c1c(F)cccc1F)N1CCCC1` | -5.373 |
| `O=C(CSc1cnn[nH]1)Nc1ccc(F)cc1F` | -4.502 |
| `Cc1cn(CCNC(=O)c2cc(CC(C)C)n[nH]2)nn1` | 20.41 |
| `CCCN1CCC(NS(=O)(=O)N(CC)CC)CC1` | 10.1 |
| `CC(C)[C@H]1CN(CCC(=O)N(C)C)C[C@@H]1N` | -10.18 |
| `CN(C(=O)c1cnccn1)C1(C#N)CCC1` | -0.351 |
| `CN(Cc1nc(-c2cccs2)no1)C(=O)C(C)(C)C` | -11.92 |
| `O=C(c1ccccc1O)N1CCN2CCCCC2C1` (configuration not stated) | 3.596 |
| `CCn1cnnc1CNC(=O)N1CCN(C)CC1C` (configuration not stated) | 5.296 |
| `CN(c1ccccc1C#N)S(C)(=O)=O` | -16.31 |
| `CC1NCCn2c(C(=O)NC3CC3)ccc21` (configuration not stated) | -16.29 |
| `c1ccc(N2CCCN3CCCC3C2)nc1` (configuration not stated) | -7.091 |
| `Cn1nccc1[C@H]1OCC[C@@H]1N` | 1.759 |
| `CCOc1cc(CN)ccc1OC(F)F` | 2.969 |
| `CC(C)CNC(=O)N(C)Cc1cnn(C)c1` | 2.733 |
| `CCOCc1noc(C(C)N)n1` (configuration not stated) | -3.086 |
| `O=C(CSCCO)Nc1ncc(-c2ccccc2)s1` | -3.672 |
| `Cc1noc(CNC(=O)CCc2ccco2)n1` | -11.83 |
| `CNCC1(CO)CCOCC1` | 9.824 |
| `CCn1cnnc1CN(C)Cc1cc(C(C)=O)cn1C` | -2.221 |
| `CCC(C)(O)CCN` (configuration not stated) | 17.18 |
| `CCS(=O)(=O)c1cc(OC)c(OC)cc1C` | 22.56 |
| `CC(C(=O)Nc1cncc(Br)c1O)n1cncn1` (configuration not stated) | 1.899 |
| `O=C(CC1CCCN1)Nc1ccc2[nH]ncc2c1` (configuration not stated) | -16.8 |
| `CCC(O)CNc1cc(C2CCNCC2)nc(C)n1` (configuration not stated) | 1.723 |
| `Cc1ccc(CN(CCO)C(=O)c2cc[nH]n2)cc1` | 23.84 |
| `N#Cc1cc2c(nc1SCC(N)=O)C1CCN2CC1` | 22.39 |
| `CN(CCN)CC1CCCO1` (configuration not stated) | -10.01 |
| `NC(=O)c1cc(OC2CCNCC2)ccn1` | -2.87 |
| `CCc1nn2c(=O)cc(CN(CC)CC)nc2s1` | -10.63 |
| `NC(=O)C1CCN(CC(=O)NCc2ccc(Cl)s2)CC1` | -20.02 |
| `O=C(NC1CCCC1)c1nc2ncccn2n1` | -3.391 |
| `Cc1csc(CNC(=O)NC(C)Cn2cccn2)n1` (configuration not stated) | -3.492 |
| `CN[C@H](C(=O)NCCc1scnc1C)C(C)C` | 26.52 |
| `COc1ccc(CCNc2ccc3nnnn3n2)cc1` | 0.3483 |
| `CCN(C(=O)CCc1cccnc1)[C@H]1COC[C@@H]1O` | 3.439 |
| `COc1cccc(OC2CN(C(=O)[C@@H](N)CO)C2)c1` | -3.541 |
| `CN1CCC(C(=O)NCCc2cccc(Cl)c2)CC1=O` (configuration not stated) | -20.93 |
| `COC(=O)Nc1ccc(C(=O)N2CCCC2)cc1` | 5.664 |
| `Cc1cc(NC(=O)C2CCN(CC(C)C)CC2)no1` | -21.55 |
| `CCn1cc(C(=O)Nc2ccc(Br)cn2)cn1` | -15.52 |
| `CC(C)[C@H](N)C(=O)N1CCN(Cc2cccnc2)CC1` | -0.8601 |
| `Cc1csc(CNC(=O)c2ccco2)n1` | 2.51 |
| `CN1CCC(CNC(=O)CCc2cccs2)C1` (configuration not stated) | -16.97 |
| `O=C(NCc1ccoc1)C12CCCN1CCC2` | -2.525 |
| `CC(C)n1cc(S(=O)(=O)N2CCC3(CCOC3)C2)cn1` (configuration not stated) | -8.853 |
| `Cc1c[nH]c(=O)c(CN)c1` | -16.75 |
| `CC(=O)NC(C(=O)Nc1cccc(C)n1)C(C)C` (configuration not stated) | 6.404 |
| `Cc1nc(CCN2CCc3c(c(CO)nn3C)C2)cs1` | 1.563 |
| `CO[C@H]1[C@@H]2CC[C@H]1CN(C(=O)c1nc(C)c[nH]1)C2` | 3.171 |

The first 7 entries again:

Compound,Percent Effect
Cn1cc(Br)cc1C(=O)NCCCNc1ncccn1,-2.644
NCc1ccc(C(=O)NCC(N)=O)cc1,-2.202
CS(=O)(=O)n1cc(N)cn1,-2.195
NC(=O)C1CCC(NC(=O)c2cc(F)cc(F)c2)CC1 (configuration not stated),-36.7
Cc1cc(Br)oc1C(=O)NCCOC(N)=O,-2.351
CCn1cc(NC(=O)NC(C)C)cn1,17.68
CN1C(=O)C[C@H](CN)[C@H]1c1cccnc1,13.49

Measurements from “University of Dundee, Small-Polar-MMV Screening Library” (2021), ChEMBL document CHEMBL3988442.